# Test results taken from patent US20180161288A1, “TAU AGGREGATION INHIBITOR” (National Center for Geriatrics and Gerontology, priority 2011, published 2018).
# At least one compound was matched to its structure with a doubt left.
# Molecular target: tau (Homo sapiens, UniProt P10636)
# Test: quantification of insoluble tau pellet after centrifugation at 250000 xg
# Assay type: biochemical
# Conditions: pellet after 250000 xg for 2 h
# Experimental: For this analysis, 10-μM tau, a compound (1 μM, 10 μM, or 100 μM), and thioflavine T (a beta-pleated sheet structure-specific detection reagent) were mixed together. Thereafter, heparin, which is a tau aggregation inducer, was added to the mixture, and the resulting mixture was incubated at 37° C., thereby allowing tau to aggregate. Subsequently, the thioflavine T activity in an incubation sample was measured at various times to investigate tau aggregation inhibition effects by the compounds.
# To further investigate the effects of these nine compounds on tau aggregation specifically, samples that had been incubated at 37° C. were centrifuged at 250000 ×g for 2 h, the resultant pellets were obtained so that the amount of insoluble tau were quantified.
compound,measurement,value
O=C1C=CC(=C(c2ccc(O)c(O)c2)c2ccccc2S(=O)(=O)O)C=C1O (mixture of isomers) [pyrocatechol violet],amount of insoluble tau,reduced the amount of insoluble tau in a concentration dependent manner
